PubChem BioAssay AID1508588 – Peter MacCallum Cancer Centre, 2020
Screen: 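Genome-wide search for knock-downs that heighten vemurafenib action in melanoma cells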 (primary screen). System: human WM266.4 melanoma cells (BRAF V600 mutant). Knock-down reagent: siRNA pool against human genes, 40 nM. Timing: 96 h from transfection to read-out. Conditions: vemurafenib 300 nM (about IC25), added 48 h after transfection, for 48 h; comparison arm got DMSO vehicle only. Measured: 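Cell gain (DAPI nuclei at end minus before drug, mean of two replicates) and medium lactate by absorbance per cell, both as ratio to non-targeting siRNA, also grouped into fold-change classes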. Direction: cell gain with vemurafenib: higher = more cell gain than with non-targeting siRNA; lactate per cell with vemurafenib: higher = more lactate made per cell. Active means: 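Enhancement is called by pairing each knock-down's vehicle-arm and drug-arm fold-change classes for viability or glycolysis; which class combinations qualify is not given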. Meaning of the calls: active = enhances vemurafenib effect; inactive = no enhancement seen.
Shown is a random part of about 18,000 deposited reagents. 790 of them (4.4%) were called active. 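Calls rest on a combination of fold-change classes in drug and vehicle arms, not all shown here.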 Reagent sequences are not shown.

gene	cell gain with vemurafenib	lactate per cell with vemurafenib	call
RPS6KA4	0.11	0.93	inactive
TMPRSS4	0.57	1.01	inactive
RNF31	1.03	0.68	inactive
TNFRSF10C	0.79	0.28	inactive
TXNDC8	0.8	0.48	inactive
C2CD5	0.53	1.05	inactive
UBE2Z	0.14	0.89	inactive
GPHRB	0.39	0.55	inactive
NR1H4	0.79	0.99	inactive
ZNF157	0.5	0.74	inactive
DHRS13	0.69	0.79	inactive
PUM2	0.48	1.1	inactive
ZP3	0.9	1.36	inactive
MLLT10	1.22	0.54	inactive
C14orf39	0.5	0.78	inactive
FHDC1	0.59	0.68	inactive
GET3	0.88	1.19	inactive
NKAIN1	0.97	1.23	inactive
RBM12B	0.62	1.08	inactive
PRR36	0.76	1.06	inactive
TPRA1	0.63	0.16	active
KDM1B	1.09	0.68	inactive
ABAT	0.5	2.12	inactive
EMILIN1	0.25	1.13	inactive
METTL21C	0.28	1.31	inactive
RNF26	1.14	0.84	inactive
KRTCAP3	1.12	0.52	inactive
PCDHA12	0.36	1.92	inactive

Continued, starting with the last 3 of the part before.
gene	cell gain with vemurafenib	lactate per cell with vemurafenib	call
RNF26	1.14	0.84	inactive
KRTCAP3	1.12	0.52	inactive
PCDHA12	0.36	1.92	inactive
TOMM40	0.77	0.96	inactive
MCRS1	0.41	1.04	inactive
KRTDAP	0.74	0.89	inactive
SLFN13	0.47	0.63	inactive
ZNF398	0.42	1.22	inactive
PTPRA	0.83	0.84	inactive
MAPK1	-0.22	-0.32	inactive
ZFP36L2	0.7	0.43	inactive
ARL6IP4	0.85	0.48	inactive
SLC35A3	0.34	1.44	inactive
MAST3	1.1	0.76	inactive
TLR2	0.7	0.86	inactive
PBDC1	0.91	0.87	inactive
MAPK12	0.67	0.74	inactive
TBL3	0.76	0.89	inactive
DCAF16	0.51	0.74	inactive
SPAG5	0.46	0.86	inactive
UBA1	0.5	0.52	inactive
CFAP53	0.99	1.52	inactive
RIBC1	0.69	0.58	inactive
RNF125	0.99	0.74	inactive
RPA4	0.65	1.02	inactive
GNA15	0.41	0.86	inactive
ERLIN2	0.46	0.54	inactive
HMG20A	0.58	1	inactive
FBXO6	0.47	1.77	inactive
CATSPERD	0.44	0.73	inactive
MTTP	0.71	1.1	inactive
TBC1D9	0.36	0.85	inactive
